# Library screen at single concentrations

The chains behind the UniProt entries cited, without tags or fusion partners. Residues count along the entry.
UniProt P9WPC5, whole entry: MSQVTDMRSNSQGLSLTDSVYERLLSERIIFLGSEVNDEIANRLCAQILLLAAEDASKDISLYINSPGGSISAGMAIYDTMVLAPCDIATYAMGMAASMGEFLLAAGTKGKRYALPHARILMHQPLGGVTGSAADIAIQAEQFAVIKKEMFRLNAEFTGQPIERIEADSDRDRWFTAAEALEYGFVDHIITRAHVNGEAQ
UniProt P9WPC3, whole entry partner: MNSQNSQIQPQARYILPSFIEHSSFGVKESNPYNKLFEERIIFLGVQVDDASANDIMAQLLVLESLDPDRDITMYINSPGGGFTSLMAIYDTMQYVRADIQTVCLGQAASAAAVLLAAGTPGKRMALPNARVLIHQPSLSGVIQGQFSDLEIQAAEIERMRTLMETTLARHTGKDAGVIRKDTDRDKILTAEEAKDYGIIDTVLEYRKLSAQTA
UniProt P9WNZ1, whole entry: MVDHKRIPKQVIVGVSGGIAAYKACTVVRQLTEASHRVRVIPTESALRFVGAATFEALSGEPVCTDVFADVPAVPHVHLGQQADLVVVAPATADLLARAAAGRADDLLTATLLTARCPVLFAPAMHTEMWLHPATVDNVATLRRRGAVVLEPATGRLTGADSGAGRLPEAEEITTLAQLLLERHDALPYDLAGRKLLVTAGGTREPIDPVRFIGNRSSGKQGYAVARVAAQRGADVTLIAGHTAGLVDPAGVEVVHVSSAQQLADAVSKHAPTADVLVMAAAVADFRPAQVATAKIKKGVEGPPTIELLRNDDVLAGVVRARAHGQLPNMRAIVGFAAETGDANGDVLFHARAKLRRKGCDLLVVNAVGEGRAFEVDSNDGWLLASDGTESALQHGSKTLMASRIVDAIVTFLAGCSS
UniProt A4I591, 1-473: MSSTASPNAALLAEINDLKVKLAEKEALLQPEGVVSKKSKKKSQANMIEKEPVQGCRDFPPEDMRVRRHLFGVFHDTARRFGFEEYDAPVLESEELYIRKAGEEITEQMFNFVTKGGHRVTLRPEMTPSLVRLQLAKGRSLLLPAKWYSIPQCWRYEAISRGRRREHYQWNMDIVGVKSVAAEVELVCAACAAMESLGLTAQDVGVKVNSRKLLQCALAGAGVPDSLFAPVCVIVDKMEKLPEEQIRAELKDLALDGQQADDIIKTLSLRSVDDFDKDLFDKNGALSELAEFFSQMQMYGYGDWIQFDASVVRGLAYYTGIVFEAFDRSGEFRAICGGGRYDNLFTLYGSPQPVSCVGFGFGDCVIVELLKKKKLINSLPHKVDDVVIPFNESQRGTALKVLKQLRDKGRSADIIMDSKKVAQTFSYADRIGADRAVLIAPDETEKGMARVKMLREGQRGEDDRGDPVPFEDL

ClpP1P2: 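ClpP1P2, Mycobacterium tuberculosis (UniProt P9WPC5 and UniProt P9WPC3). Protease assay of ClpP1P2, read by the AMC dye that it sets free. Tested at 50 µM. Higher reads as stronger inhibition, judged from the few compounds that gave an IC50. Most other retested compounds had strongly negative values. About 69,000 compounds were tested under these conditions; 0.015% (about 10) showed 50% or more at least once.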
CoaBC: 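Coenzyme A biosynthesis protein CoaBC, Mycobacterium tuberculosis (UniProt P9WNZ1). Enzyme assay of CoaBC with a phosphate dye (Biomol Green) read at 650 nm. Tested at 30 µM. Direction is inferred from only a few compounds that gave an IC50; most scored high, so higher reads as stronger inhibition. Most strong results did not repeat in a second test. Of about 67,000 compounds tested this way, about 40 (0.06%) reached 50% or more in at least one test.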
Leishmania in macrophages: 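Cell assay of Leishmania donovani living inside macrophages; the read-out is not stated. Compounds at 30 µM. The record gives no direction; compounds that gave an IC50 in retests scored well above the rest, so higher reads as stronger inhibition. About 69,000 compounds were tested under these conditions; 1.5% (about 1,000) showed 50% or more at least once.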
LiHisRS: 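Histidine-tRNA ligase, Leishmania infantum (UniProt A4I591). Enzyme assay of histidyl-tRNA synthetase; the read-out is not stated. Concentration: 30 µM. Direction is inferred from retests: higher values go with stronger inhibition. The assay is labelled LdHisRS but filed under L. infantum. Of about 69,000 compounds tested this way, about 410 (0.6%) reached 50% or more in at least one test.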

The filed quantity is “Percent Effect” (%).
The controls that fix the scale are not given in the record; negative values are as filed.
The compounds are a random part of those screened.
A dash means the value is not listed here; it may have been measured.

| SMILES | ClpP1P2 | CoaBC | Leishmania in macrophages | LiHisRS |
|---|---|---|---|---|
| `COC(=O)c1cnc(C(=O)N(c2ccc(OC)c(F)c2)C(C)C)cn1` | -0.6147 | 1.373 | 8.148 | 9.859 |
| `O=C(NCc1nnc2n1CCC2)N1CCc2sccc2C1` | 0.8466 | -8.847 | 20.4 | 13.68 |
| `CC(C)c1ncc(Cl)c(C(=O)N2CCN3CCCCC3C2)n1` (centres undefined) | -12.69 | 0.8872 | 11.86 | -1.266 |
| `CC(C)=CCn1ncc(N2CCCCC2)cc1=O` | -11.1 | -4.615 | 10.16 | 5.714 |
| `[H][C@@]12CCCCCN(C)[C@@]1([H])[C@H](c1ccccc1)CN2S(=O)(=O)N(CC)CC` | - | - | 29.56 | - |
| `O=C(NC1CCN(c2ccccc2OC(F)F)C1)c1cccnc1` (centres undefined) | -7.328 | 0.3681 | 35.34 | 7.843 |
| `Cc1ccc(OCCNC(=O)C2CCOCC2)c(C)c1` | 13.86 | 2.789 | -16.35 | 24.66 |
| `Cn1cc(-c2cccc(CNC(=O)N3CCC[C@@H]3CO)c2)cn1` | -16.29 | 2.091 | -13.34 | 3.226 |
| `Cc1ccc(C(=O)N2CCCC(NC(=O)C(C)C)C2)c(O)c1` (centres undefined) | 2.648 | 3.203 | 2.365 | 26.19 |
| `Cc1nc(C)n(CC2CCCN2c2ncnc3sc(C)c(C)c23)n1` (centres undefined) | 14.22 | 1.942 | 13.67 | 10.59 |
| `COCCN(Cc1cnn(C)c1)C(=O)C1CCCN(C2CCOCC2)C1` (centres undefined) | 3.276 | -2.296 | 2.022 | 6.122 |
| `CCCc1nc(CN2CCCC2Cn2cccn2)cs1` (centres undefined) | -20.93 | -3.171 | 31.37 | 11.2 |
| `CN(Cc1cccnc1)CC1(O)CCCN(CC(C)(C)C)C1=O` (centres undefined) | -27.57 | -5.357 | 1.267 | 11.11 |
| `CCC(CN1CCCCC1)NC(=O)C1(c2ccc(F)cc2)CC1.O=C(O)CC(O)(CC(=O)O)C(=O)O` (centres undefined) | - | - | 18.07 | - |
| `Cc1ccc(C(=O)N2CC3(CCCCC3)c3cc(C(=O)O)ccc32)cn1` | -4.208 | 8.469 | - | 11.43 |
| `CCCSc1ncc(CN(C)CCN2CCCCC2)cn1.O=C(O)CC(O)(CC(=O)O)C(=O)O` | - | - | 26.3 | - |
| `O=C(CN1CCCCC1Cn1cncn1)NCc1ccccn1` (centres undefined) | -20.68 | 1.542 | 3.882 | 3.371 |
| `Cc1cnc(N2CCC3(CCC(C(=O)NC(C)C)C3)CC2)nc1` (centres undefined) | -3.495 | - | - | 15.38 |
| `COc1cc(N[C@@H](Cc2ccccc2)C(N)=O)ncn1` | -3.617 | 5.943 | 20.9 | 15.71 |
| `Cc1nc(CNCc2ccc(N3CCN(C)CC3)nc2)cs1` | -4.842 | 0.9615 | 11.07 | 0 |
| `Cn1nc(CO)c2c1CCN(c1ncnc3c1CCNCC3)C2` | -9.926 | -1.901 | 4.524 | 8.861 |
| `CN1CCN(C[C@@H]2CN(Cc3c(Cl)cncc3Cl)C[C@@H]2CO)CC1` | 4.355 | -23.83 | 13.85 | 27.63 |
| `CN(C)c1cccc(C(=O)Nc2cn(C)c(=O)n(C)c2=O)c1` | 9.947 | - | 15.29 | 25.71 |
| `CCC1CN(CC(=O)NCCN2CCCCCC2)c2ccccc2S1` (centres undefined) | -9.511 | 0.8475 | 49.65 | 51.09 |
| `COCCN(Cc1ccsc1)C(=O)c1c(C)cc(C)[nH]c1=O` | -5.786 | 11.9 | 5.179 | 9.859 |
| `CCc1nc(CNC(=O)Nc2nc(COC)cs2)cs1` | -4.515 | 2.269 | 6.69 | 14.29 |
| `CCc1c(C)[nH]c(C2(N)CCCCC2)nc1=O` | -8.357 | 0.7009 | - | 22.12 |
| `CN(C)c1cc2c(nn1)CCN(C(=O)Cc1noc3ccccc13)C2` | -2.413 | 5.181 | 23.79 | -2.128 |
| `Cn1ccnc1C(=O)N1CCC2(CCN2Cc2ccc(F)cc2)C1.O=C(O)C(F)(F)F` (centres undefined) | - | - | 10.35 | - |
| `CCNC(=O)C(C)NC(=O)Nc1ccccc1Cl` (centres undefined) | 2.389 | -0.7371 | 9.553 | 8.73 |
| `Cc1cnc(CNC(=O)NCc2cccnc2N(C)C)s1` | 5.695 | 1.205 | 9.663 | 0 |
| `O=C1NCCN(C(=O)CCN2CCCO2)C1c1cccc(F)c1` (centres undefined) | 1.804 | 3.558 | 6.68 | 31.37 |
| `COCCN1CC(c2cc(O)nc(NC(C)C)n2)CC1=O` (centres undefined) | -11.74 | 0.3708 | 15.46 | 11.72 |
| `CN(C)C(=O)c1nc(CN2CC(c3ccccc3)CC2=O)no1` (centres undefined) | 8.524 | -5.161 | 0.9727 | 14.47 |
| `O=C(O)C(F)(F)F.[H][C@@]12CN(CC3CC3)C[C@]1([H])[C@@H](OC)CCN2C(=O)c1cc(C)nn1CC` | - | - | -11.03 | - |
| `Cc1cccc(S(=O)(=O)N2C[C@H]3C[C@H](C(=O)NC4CCC4)[C@@H](C2)O3)c1` | -0.5595 | - | - | 17.09 |
| `O=C(NCc1cn2c(n1)CN(CC1CCOCC1)CC2)C1CCC1` | -1.235 | -6.004 | - | 9.615 |
| `c1csc(CN2Cc3nccn3CC(Cn3cncn3)C2)c1` (centres undefined) | 3.248 | 3.393 | - | 11.7 |

Some entries from above, unchanged:

| SMILES | ClpP1P2 | CoaBC | Leishmania in macrophages | LiHisRS |
|---|---|---|---|---|
| `COCCN(Cc1cnn(C)c1)C(=O)C1CCCN(C2CCOCC2)C1` (centres undefined) | 3.276 | -2.296 | 2.022 | 6.122 |
| `[H][C@@]12CCCCCN(C)[C@@]1([H])[C@H](c1ccccc1)CN2S(=O)(=O)N(CC)CC` | - | - | 29.56 | - |
| `CCC(CN1CCCCC1)NC(=O)C1(c2ccc(F)cc2)CC1.O=C(O)CC(O)(CC(=O)O)C(=O)O` (centres undefined) | - | - | 18.07 | - |
| `CC(C)=CCn1ncc(N2CCCCC2)cc1=O` | -11.1 | -4.615 | 10.16 | 5.714 |

Measurements from “University of Dundee, Small-Polar-MMV Screening Library” (2021), ChEMBL document CHEMBL3988442.